The assay deals with gastric H+,K+-ATPase α-subunit (UniProt P09626). The assay is described as follows: co-IP; data not shown: COS cells expressing H+,K+-ATPase α- and β-subunits and HA-PP2A C-subunit; precipitation with HK9 antibody.

The chains behind the UniProt entries cited, without tags or fusion partners.
UniProt P09626: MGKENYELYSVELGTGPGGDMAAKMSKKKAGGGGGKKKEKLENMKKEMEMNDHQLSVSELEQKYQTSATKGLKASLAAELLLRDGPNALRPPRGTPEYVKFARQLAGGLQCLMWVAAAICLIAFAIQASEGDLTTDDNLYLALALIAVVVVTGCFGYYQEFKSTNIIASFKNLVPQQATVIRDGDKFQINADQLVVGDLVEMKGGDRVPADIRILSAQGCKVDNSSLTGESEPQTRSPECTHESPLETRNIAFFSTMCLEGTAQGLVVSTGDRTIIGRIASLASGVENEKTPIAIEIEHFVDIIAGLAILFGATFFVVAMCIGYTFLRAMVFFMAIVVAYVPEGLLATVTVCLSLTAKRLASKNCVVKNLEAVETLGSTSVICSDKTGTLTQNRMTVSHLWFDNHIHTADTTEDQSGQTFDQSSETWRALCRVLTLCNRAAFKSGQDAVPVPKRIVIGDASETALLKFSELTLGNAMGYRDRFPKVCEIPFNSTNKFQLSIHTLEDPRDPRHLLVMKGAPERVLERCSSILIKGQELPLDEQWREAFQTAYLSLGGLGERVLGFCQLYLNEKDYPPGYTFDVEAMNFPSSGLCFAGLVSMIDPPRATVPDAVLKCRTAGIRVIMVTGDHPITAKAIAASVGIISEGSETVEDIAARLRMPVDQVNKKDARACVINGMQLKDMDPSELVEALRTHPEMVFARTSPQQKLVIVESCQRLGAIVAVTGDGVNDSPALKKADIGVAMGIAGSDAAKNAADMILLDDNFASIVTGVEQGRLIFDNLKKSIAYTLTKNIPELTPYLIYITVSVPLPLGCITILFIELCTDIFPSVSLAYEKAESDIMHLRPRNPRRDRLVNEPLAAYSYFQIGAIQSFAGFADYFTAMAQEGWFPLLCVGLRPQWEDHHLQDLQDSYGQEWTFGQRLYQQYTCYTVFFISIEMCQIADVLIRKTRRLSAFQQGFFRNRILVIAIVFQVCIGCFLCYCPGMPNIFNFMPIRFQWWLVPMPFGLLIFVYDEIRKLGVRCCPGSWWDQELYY

Results are given in words; binding and its absence hold for the method and conditions named. In cells and extracts the contact can be indirect. Some entries that bind do so weakly or less than the wild type.

B1: gastric H+,K+-ATPase β-subunit (protein, UniProt P18598 1-294)
chain: MAALQEKKSCSQRMAEFRQYCWNPDTGQMLGRTPARWVWISLYYAAFYVVMTGLFALCIYVLMQTIDPYTPDYQDQLKSPGVTLRPDVYGERGLQISYNISENSSWAGLTHTLHSFLAGYTPASQQDSINCSSEKYFFQETFSAPNHTKFSCKFTADMLQNCSGLVDPSFGFEEGKPCFIIKMNRIVKFLPSNNTAPRVDCTFQDDPQKPRKDIEPLQVQYYPPNGTFSLHYFPYYGKKAQPHYSNPLVAAKFLNVPKNTQVLIVCKIMADHVTFDNPHDPYEGKVEFKLTIQK
For the molecule B1, the binding entry is “binds”.

These data come from publication PMC3248462.
